Survivor count and T/C data for 23 compounds are collected here from PubChem BioAssay AID256 (DTP/NCI, 2004).

The list does not hold the whole screen: it gathers tests that were run many times, whatever their T/C, doses with no T/C, and many T/C values between a quarter and a half above the control. Other doses and runs of a compound stand elsewhere. T/C is the treated group as % of the vehicle group. Some doses have a count of surviving animals in place of a T/C: the source files T/C as zero there, which appears to mark a toxic dose or a test without result, not a measured value. Some doses without a T/C left all or most animals alive at the check, yet need not have been tolerated: survival well below the control is almost never listed, so the zero probably covers shortened survival too. Survivors were counted at the toxicity check, usually on the fifth day, unless a day is given; later deaths do not show. Schedule codes are those of the source, read here as Q, the interval in days (D) or hours (H), X, the number of doses. For survival time, the PubChem record calls one and a half times the control and up active, and a quarter to a half above the control has no call in these data; cut-offs in other NCI protocols can differ. Some T/C values are followed by the survivors on the day toxicity was checked, most often the fifth; without a count, all were alive then. Some entries were tested several times; their values stand side by side, smallest first.

In this experiment the test system is CD2F1 mice, L1210 leukemia ip, survival T/C. Nature of the experiment: NCI In Vivo Anticancer Drug Screen. Data for tumor model L1210 Leukemia (intraperitoneal) in CD2F1 (CDF1) mice. The settings on record: higher T/C = longer survival. Summed up: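 Transplantable tumor in mice; compound-treated vs vehicle-treated groups. Read-out = treated/control ratio of the measured endpoint.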

Setting [1] is: T/C endpoint: mean survival time, dose: 200.0 mg/kg/injection, schedule: Q01DX001 (ip), vehicle: saline with Tween-80.
[2] abbreviates: T/C endpoint: mean survival time, dose: 400.0 mg/kg/injection, schedule: Q01DX001 (ip), vehicle: saline with Tween-80.
The mark [3] stands for this setting: T/C endpoint: mean survival time, dose: 400.0 mg/kg/injection, schedule: Q04DX002 (ip), vehicle: saline with Tween-80.
Setting [4] is: T/C endpoint: mean survival time, dose: 400.0 mg/kg/injection, schedule: Q04DX003 (ip), vehicle: saline with Tween-80.
The mark [5] stands for this setting: T/C endpoint: mean survival time, dose: 75.0 mg/kg/injection, schedule: Q01DX001 (ip), vehicle: saline.
Setting [6] is: T/C endpoint: mean survival time, dose: 300.0 mg/kg/injection, schedule: Q01DX001 (ip), vehicle: saline.
Setting [7] is: T/C endpoint: mean survival time, dose: 50.0 mg/kg/injection, schedule: Q01DX009 (ip), vehicle: saline.
Setting [8] is: T/C endpoint: mean survival time, dose: 200.0 mg/kg/injection, schedule: Q01DX009 (ip), vehicle: distilled water + Tween-80.
[9] abbreviates: T/C endpoint: mean survival time, dose: 200.0 mg/kg/injection, schedule: Q01DX009 (ip), vehicle: saline.
The mark [10] stands for this setting: T/C endpoint: mean survival time, dose: 800.0 mg/kg/injection, schedule: Q01DX009 (ip), vehicle: saline.
[11] abbreviates: T/C endpoint: mean survival time, dose: 50.0 mg/kg/injection, schedule: Q01DX009 (ip), vehicle: saline with Tween-80.
Setting [12] is: T/C endpoint: mean survival time, dose: 200.0 mg/kg/injection, schedule: Q01DX009 (ip), vehicle: saline with Tween-80.
[13] abbreviates: T/C endpoint: mean survival time, dose: 150.0 mg/kg/injection, schedule: Q04DX003 (ip), vehicle: saline with Tween-80.
Where [14] appears, read: T/C endpoint: mean survival time, dose: 300.0 mg/kg/injection, schedule: Q04DX003 (ip), vehicle: saline with Tween-80.
Where [15] appears, read: T/C endpoint: mean survival time, dose: 100.0 mg/kg/injection, schedule: Q01DX001 (ip), vehicle: saline with Tween-80.

Regarding `O=C(CC1(Cl)C(F)(F)C(F)(F)C1(F)F)c1ccccc1`, the survivor count is 0 of 6 under setting [1] and 0 of 6 under setting [2].

For `C1CC2(CCC13CS3)CS2` (stereo not given), the survivor count under setting [3] is 0 of 3.

For `CN1COc2c(Cl)cc(Cl)cc2C1`, the survivor count was 5 of 6 (T/C endpoint: mean survival time, dose: 200.0 mg/kg/injection, schedule: Q04DX003 (ip), vehicle: saline with Tween-80) and 3 of 6 under setting [4].

Regarding `COC1OC(CSC#N)C2OC(C)(C)OC12` (stereo not given), the survivor count under setting [5] was 0 of 6; the survivor count (T/C endpoint: mean survival time, dose: 80.0 mg/kg/injection, schedule: Q01DX001 (ip), vehicle: saline) is reported as 1 of 6; the survivor count (T/C endpoint: mean survival time, dose: 150.0 mg/kg/injection, schedule: Q01DX001 (ip), vehicle: saline) is listed as 0 of 6; the survivor count under setting [6] is 0 of 6.

As for `CN1Cc2c([nH]c3ccccc23)C(O)C1` (stereo not given), the survivor count under setting [6] is given as 3 of 6.

With `CC(CN=Cc1ccccc1[NH-])N=Cc1ccccc1[NH-].[Ni+2]` (stereo not given), the survivor count reads like this: (T/C endpoint: mean survival time, dose: 100.0 mg/kg/injection, schedule: Q04DX002 (ip), vehicle: saline with Tween-80) 1 of 3; (T/C endpoint: mean survival time, dose: 200.0 mg/kg/injection, schedule: Q04DX002 (ip), vehicle: saline with Tween-80) 0 of 3; under setting [3], 0 of 3.

Consider `O=c1cnn(C2OC(CO)C(O)C2O)c(=O)[nH]1` (stereo not given), for which the T/C reads like this: (T/C endpoint: mean survival time, dose: 12.5 mg/kg/injection, schedule: Q01DX009 (ip), vehicle: saline) 135 % of control; (T/C endpoint: mean survival time, dose: 25.0 mg/kg/injection, schedule: Q01DX009 (ip), vehicle: saline) 133 % of control; (T/C endpoint: mean survival time, dose: 25.0 mg/kg/injection, schedule: Q03HX024 (ip), vehicle: saline) 132 % of control [5 of 6 alive]; under setting [7], 131 % of control; (T/C endpoint: mean survival time, dose: 143.0 mg/kg/injection, schedule: Q03HX024 (ip), vehicle: other) 148 % of control; under setting [8], 130 % of control. Further, the T/C is 127 and 129 % of control under setting [9]; 129 % of control (T/C endpoint: mean survival time, dose: 300.0 mg/kg/injection, schedule: Q03HX016 (ip), vehicle: other); 130 % of control (T/C endpoint: mean survival time, dose: 400.0 mg/kg/injection, schedule: Q01DX005 (ip), vehicle: water, evaluated on day 20); 127 % of control (T/C endpoint: mean survival time, dose: 400.0 mg/kg/injection, schedule: Q01DX005 (ip), vehicle: water, evaluated on day 30); 140 % of control (T/C endpoint: mean survival time, dose: 400.0 mg/kg/injection, schedule: Q01DX009 (ip), vehicle: distilled water + Tween-80); 130 and 136 % of control (T/C endpoint: mean survival time, dose: 400.0 mg/kg/injection, schedule: Q01DX009 (ip), vehicle: saline). For the same compound, the T/C reads like this: (T/C endpoint: mean survival time, dose: 800.0 mg/kg/injection, schedule: Q01DX005 (ip), vehicle: water, evaluated on day 20) 143 % of control; (T/C endpoint: mean survival time, dose: 800.0 mg/kg/injection, schedule: Q01DX005 (ip), vehicle: water, evaluated on day 30) 131 % of control; under setting [10], 127 and 133 % of control; (T/C endpoint: mean survival time, dose: 1600.0 mg/kg/injection, schedule: Q01DX009 (ip), vehicle: saline) 127 % of control [5 of 6 alive]. In addition, the survivor count is given as 2 of 6 (T/C endpoint: mean survival time, dose: 100.0 mg/kg/injection, schedule: Q03HX024 (ip), vehicle: saline); 2 of 6 (T/C endpoint: mean survival time, dose: 200.0 mg/kg/injection, schedule: Q03HX024 (ip), vehicle: saline); 6 of 6 under setting [10].

On to `CC(C)NC(=O)OCc1c(COC(=O)NC(C)C)c(-c2ccc(Cl)c(Cl)c2)n2c1CCC2`, for which the T/C reads like this: (T/C endpoint: mean survival time, dose: 25.0 mg/kg/injection, schedule: Q01DX009 (ip), vehicle: distilled water + Tween-80) 130 % of control; (T/C endpoint: mean survival time, dose: 50.0 mg/kg/injection, schedule: Q01DX009 (ip), vehicle: distilled water + Tween-80) 126 % of control [5 of 6 alive]; under setting [11], 132 % of control; (T/C endpoint: mean survival time, dose: 100.0 mg/kg/injection, schedule: Q01DX009 (ip), vehicle: distilled water + Tween-80) 134 % of control; under setting [8], 129 % of control [5 of 6 alive]; (T/C endpoint: median survival time, dose: 400.0 mg/kg/injection, schedule: Q01DX005 (ip), vehicle: saline with Tween-80) 140 % of control. For the same compound, the survivor count under setting [12] is reported as 6 of 6.

As to `CCOC(=O)c1c(C)nc(C)c(C(=O)OCC)c1-c1ccc(N(C)C)cc1`, the survivor count under setting [4] is listed as 5 of 6.

As for `CCCCCCCCCCCCCCCC(=O)NCCN(CC)CC`, the survivor count is listed as 6 of 6 under setting [5]; 6 of 6 (T/C endpoint: mean survival time, dose: 100.0 mg/kg/injection, schedule: Q01DX009 (ip), vehicle: saline with Tween-80); 2 of 6 under setting [13]; 0 of 6 under setting [12]; 2 of 6 under setting [6]; 1 of 6 under setting [14].

`CC(=O)OC1OC(=O)C(C)(C(C)=O)C1C` (stereo not given): the survivor count (T/C endpoint: median survival time, dose: 40.0 mg/kg/injection, schedule: Q01DX009 (ip), vehicle: distilled water + alcohol) is given as 3 of 6.

Regarding `c1ccc(NC2=NCCO2)cc1`, the survivor count under setting [4] is on record as 2 of 6.

For the compound `CCCCCCC(C(=O)OCC)P(=O)(OCC)OCC` (stereo not given), the survivor count is recorded as 3 of 6 under setting [13] and 1 of 6 under setting [14].

As for `CCCCCCCCCCCCCCCC[n+]1ccc(C(N)=O)cc1`, the survivor count (T/C endpoint: mean survival time, dose: 25.0 mg/kg/injection, schedule: Q01DX009 (ip), vehicle: saline with Tween-80) is recorded as 6 of 6 and the survivor count under setting [11] was 2 of 6.

`CCN=C=NCCCN(C)C`: the survivor count was 4 of 6 under setting [7]; 0 of 6 (T/C endpoint: mean survival time, dose: 100.0 mg/kg/injection, schedule: Q01DX009 (ip), vehicle: saline); 0 of 6 under setting [9].

Turning to `N=c1c2ncn(C3CCCC3)c2ncn1Cc1ccccc1`, the survivor count was 0 of 6 (T/C endpoint: mean survival time, dose: 100.0 mg/kg/injection, schedule: Q01DX001 (ip), vehicle: carboxymethylcellulose (CMC)); 0 of 6 (T/C endpoint: mean survival time, dose: 200.0 mg/kg/injection, schedule: Q01DX001 (ip), vehicle: carboxymethylcellulose (CMC)); 0 of 6 (T/C endpoint: mean survival time, dose: 400.0 mg/kg/injection, schedule: Q01DX001 (ip), vehicle: carboxymethylcellulose (CMC)).

With `CON(C)CC(O)c1ccccc1` (stereo not given), the survivor count under setting [4] is 3 of 6.

`O=[As](O)(O)c1cccc2ccccc12`: for the setting “T/C endpoint: mean survival time, dose: 5.0 mg/kg/injection, schedule: Q01DX009 (ip), vehicle: saline”, the survivor count was 1 of 3.

`CO[C@@]12[C@@H]3N[C@@H]3CN1C1=C(C(=O)C(Nc3ccc(O)cc3C)=C(C)C1=O)[C@@H]2COC(N)=O`: the T/C reads like this: (T/C endpoint: mean survival time, dose: 12.0 mg/kg/injection, schedule: Q01DX001 (ip), vehicle: water) 134 % of control; (T/C endpoint: mean survival time, dose: 24.0 mg/kg/injection, schedule: Q01DX001 (ip), vehicle: water) 128 and 137 % of control [5 of 6 alive].

Turning to `OCCOc1ccc(Cl)cc1`, where the note is “T/C endpoint: mean survival time, dose: 400.0 mg/kg/injection, schedule: Q01DX009 (ip), vehicle: saline with Tween-80”, the survivor count is given as 0 of 6.

For the compound `Cc1cc2c(C(C)C)c(O)c(O)cc2c(O)c1-c1c(C)cc2c(C(C)C)c(O)c(O)cc2c1O`, the survivor count under setting [15] is reported as 6 of 6, the survivor count under setting [1] is 6 of 6 and the survivor count under setting [2] was 6 of 6.

As to `Nc1nc2c(ncn2-c2cccc3ccccc23)c(=O)[nH]1`, the survivor count reads like this: under setting [15], 6 of 6; under setting [1], 6 of 6; under setting [2], 6 of 6.

On to `CC(C)NC(=O)CCCCN(C(=O)OCc1ccccc1)N(C)C(=O)OCc1ccccc1`, for which the survivor count (T/C endpoint: mean survival time, dose: 25.0 mg/kg/injection, schedule: Q04DX003 (ip), vehicle: Klucel (hydroxypropylcellulose) (HPC)) is recorded as 1 of 6.
